Measured values published in the supplement of paper PMC9135407.
“And” between values parts separate entries of the source, which are not always exact repeats. Equal entries are not always repeated. Structures can show the parent of a compound that is named as a salt. ± gives the standard deviation of the averaged measurements. The list shows a part of the results. Plates or batches differ in their baseline, so values are only roughly comparable.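 Culture-activated primary human stellate myofibroblasts, where regained lipid droplets signal inactivation. Value: share of Hoechst-counted cells above a per-plate Bodipy cutoff, in duplicate wells, with DMSO negative and nortriptyline positive controls on each plate. Hits: a control-normalized score above the plate's top-tenth-percentile nortriptyline wells, or one of a plate's three best wells. Final well concentrations are not given.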

Tested on: primary human hepatic stellate cells (donor 1)
Experiment: percent Bodipy-positive cells; higher = more lipid droplet accumulation
Settings: 48 h
[1] = library stock concentration: 10 mM
[2] = library stock concentration: 3.33 mM
[3] = library stock concentration: 7.2 mM
[4] = library stock concentration: 2 mM
[5] = library stock concentration: 80 uM
[6] = library stock concentration: 400 uM
[7] = library stock concentration: 1 mM

In the case of `COc1ccc(CCN(C)CCCOc2ccc(S(=O)(=O)c3c(C(C)C)c4ccccc4n3C)cc2)cc1OC`, the “percent Bodipy-positive cells” value [1] is reported as 100%.
`CCCCCCN(CCCCCC)C(=O)Cc1c(-c2ccc(Cl)cc2)[nH]c2ccc(Cl)cc12` was tested, and the “percent Bodipy-positive cells” value [1] was 7.7 ± 1.4%.
`O=C1c2cccc3c2[C@H](CCC3)CN1[C@@H]1CN2CCC1CC2` was tested, and the “percent Bodipy-positive cells” value [1] was 39.2 ± 7.2%.
In the case of `COc1c(C=O)c(O)cc2c1C(=O)c1ccccc1C2=O` [Damnacanthal], the “percent Bodipy-positive cells” value (library stock concentration: 17.7 mM) is reported as 14.28 ± 0.12%.
`C/C(=N\NC(=O)C1C(=O)NCC1c1ccccc1)c1cccc(Br)c1` (centres undefined) was tested, and the “percent Bodipy-positive cells” value [1] was 7.53 ± 2%.
For `NCCCCCCCCCCNS(=O)(=O)c1cccc2c(Cl)cccc12` [A-7 hydrochloride], the “percent Bodipy-positive cells” value [1] was 94.8 ± 3.2%.
`CN(C)[C@@H]1C(=O)C(C(N)=O)=C(O)[C@@]2(O)C(=O)C3=C(O)c4c(O)ccc(Cl)c4[C@@H](O)[C@H]3C[C@@H]12` [Demeclocycline hydrochloride] was tested, and the “percent Bodipy-positive cells” value [1] was 54.8 ± 13%.
For `CN(C)[C@@H]1C(=O)C(C(N)=O)=C(O)[C@@]2(O)C(=O)C3=C(O)c4c(O)ccc(Cl)c4[C@@H](O)[C@H]3C[C@@H]12` [Demeclocycline HCl], the “percent Bodipy-positive cells” value [2] was 14.4 ± 8.5% and the “percent Bodipy-positive cells” value [1] was 32.9 ± 0.65%.
With `COc1c2c(nc3ccccc13)OC(C(C)(O)CO)C2` (centres undefined) [Dubinidine] the “percent Bodipy-positive cells” value was 10.5 ± 3.7%.
For `OCc1cc(C(O)CNCCCCCCOCCCCc2ccccc2)ccc1O` (centres undefined) [Salmeterol], the “percent Bodipy-positive cells” value [1] was 86.8 ± 1.4%.
`CC(=O)Oc1cc2c(s1)CCN(C(C(=O)C1CC1)c1ccccc1F)C2` (centres undefined) was tested, and the “percent Bodipy-positive cells” value [1] was 29.6 ± 4.4%.
With `CC(=O)Oc1cc2c(s1)CCN(C(C(=O)C1CC1)c1ccccc1F)C2` (centres undefined) [Prasugrel] the “percent Bodipy-positive cells” value [2] was 10.9 ± 0.35% and the “percent Bodipy-positive cells” value [1] was 15.5 ± 4.7%.
For `Cn1cnc([N+](=O)[O-])c1Sc1ncnc2[nH]cnc12` [Azathioprine], the “percent Bodipy-positive cells” value was 27.2 ± 6.1%, the “percent Bodipy-positive cells” value [2] was 6.17 ± 1.6% and the “percent Bodipy-positive cells” value [3] was 1.87 ± 2.1%. For the same compound, the “percent Bodipy-positive cells” value [1] was 14.8% and 24% and 11.2%.
In the case of `CC(C)C(=O)Nc1ccc([N+](=O)[O-])c(C(F)(F)F)c1`, the “percent Bodipy-positive cells” value [1] is reported as 49.3 ± 20%.
For `CC(C)C(=O)Nc1ccc([N+](=O)[O-])c(C(F)(F)F)c1` [Flutamide], the “percent Bodipy-positive cells” value was 24.7 ± 2.6%, the “percent Bodipy-positive cells” value [2] was 7.42 ± 1.3% and the “percent Bodipy-positive cells” value [3] was 11.4% and 8.87%.
With `CC(C)(O)C1CCC(C)(C2C(O)CC3(C)C4CC(OC5OC(CO)C(O)C(O)C5O)C5C(C)(C)C(OC6OCC(O)C(O)C6O)CCC56CC46CCC23C)O1` (centres undefined) [Astragaloside A] the “percent Bodipy-positive cells” value [2] was 5.91 ± 0.92% and the “percent Bodipy-positive cells” value [1] was 11.3 ± 0.77%.
For `OCCN1C[C@H](O)[C@@H](O)[C@H](O)[C@H]1CO` [Miglitol], the “percent Bodipy-positive cells” value [2] was 9.5 ± 0.22% and the “percent Bodipy-positive cells” value (library stock concentration: 9.7 mM) was 21 ± 13%.
In the case of `OCCN1C[C@H](O)[C@@H](O)[C@H](O)[C@H]1CO`, the “percent Bodipy-positive cells” value [1] is reported as 10.5 ± 3%.
With `CCC(=O)NC1CCc2cccc(OC)c2C1` (centres undefined) the “percent Bodipy-positive cells” value [1] was 5.91 ± 1.9%.
In the case of `COc1ccccc1OCCNCC(O)COc1cccc2[nH]c3ccccc3c12` (centres undefined) [Carvedilol], the “percent Bodipy-positive cells” value [1] is reported as 80.5 ± 2.3%.
In the case of `S=C(NCc1ccc2c(c1)OCO2)N1CCN(c2ncnc3c2oc2ccccc23)CC1` [Amuvatinib  (MP-470) (10 mM)], the “percent Bodipy-positive cells” value [1] is reported as 13.9 ± 2.2%.
With `S=C(NCc1ccc2c(c1)OCO2)N1CCN(c2ncnc3c2oc2ccccc23)CC1` [Amuvatinib  (MP-470) (2 mM)] the “percent Bodipy-positive cells” value [4] was 15 ± 0.83%.
For `S=C(NCc1ccc2c(c1)OCO2)N1CCN(c2ncnc3c2oc2ccccc23)CC1` [Amuvatinib (MP-470)], the “percent Bodipy-positive cells” value [2] was 10.5 ± 0.23% and the “percent Bodipy-positive cells” value [1] was 24.9 ± 0.95%.
In the case of `S=C(NCc1ccc2c(c1)OCO2)N1CCN(c2ncnc3c2oc2ccccc23)CC1`, the “percent Bodipy-positive cells” value [5] is reported as 21.2 ± 1.5%, the “percent Bodipy-positive cells” value [6] is reported as 23.7 ± 9.6% and the “percent Bodipy-positive cells” value [4] is reported as 17.1 ± 1.4%. For the same compound, the “percent Bodipy-positive cells” value [1] was 24.3 ± 3.9%.
`S=C(NCc1ccc2c(c1)OCO2)N1CCN(c2ncnc3c2oc2ccccc23)CC1` [Amuvatinib  (MP-470) (0.4 mM)] was tested, and the “percent Bodipy-positive cells” value [6] was 14.6 ± 2.6%.
With `CC(=O)OCC[N+](C)(C)C` [Miochol] the “percent Bodipy-positive cells” value [1] was 41.9 ± 5%.
For `CC(=O)OCC[N+](C)(C)C` [Acetylcholine Chloride], the “percent Bodipy-positive cells” value [2] was 8.05 ± 0.96% and the “percent Bodipy-positive cells” value [1] was 28.6 ± 18%.
In the case of `CC(=O)OCC[N+](C)(C)C` [Acetylcholine], the “percent Bodipy-positive cells” value [1] is reported as 13.4 ± 2.6% and the “percent Bodipy-positive cells” value (library stock concentration: 11 mM) is reported as 2 ± 0.046%.
With `N[C@@H](Cc1cc(-c2ccc(Cl)cc2Cl)cc(CP(=O)(O)O)c1O)C(=O)O` the “percent Bodipy-positive cells” value [1] was 5.05 ± 1.4%.
For `CC1(C)CCC2=C(O1)c1ccccc1C(=O)C2=O` [Beta-lapachone], the “percent Bodipy-positive cells” value (library stock concentration: 20.6 mM) was 90.9 ± 1%.
For `CC1(C)CCC2=C(O1)c1ccccc1C(=O)C2=O` [Beta-Lapachone], the “percent Bodipy-positive cells” value [2] was 99.3 ± 1% and the “percent Bodipy-positive cells” value [1] was 99.19 ± 0.32%.
For `CC1(C)CCC2=C(O1)c1ccccc1C(=O)C2=O` [beta-Lapachone], the “percent Bodipy-positive cells” value [1] was 99.66 ± 0.48%.
`O=C(Nc1ccncc1)Nc1c(Cl)cc(Cl)cc1Cl` [Rho Kinase Inhibitor II] was tested, and the “percent Bodipy-positive cells” value [2] was 11.5 ± 1.1%.
For `O=C1OC(OC(=O)c2cccnc2Nc2cccc(C(F)(F)F)c2)c2ccccc21` (centres undefined) [Talniflumate], the “percent Bodipy-positive cells” value [1] was 8.09 ± 3.5%.
For `COC(=O)C1=C(C)NC(C)=C(C(=O)OC(C)C)C1c1cccc2nonc12` (centres undefined), the “percent Bodipy-positive cells” value (library stock concentration: 9.9 mM) was 19 ± 5.1%.
With `COC(=O)C1=C(C)NC(C)=C(C(=O)OC(C)C)C1c1cccc2nonc12` (centres undefined) [Isradipine] the “percent Bodipy-positive cells” value was 12.2 ± 2.4%, the “percent Bodipy-positive cells” value [2] was 4.74 ± 1.9% and the “percent Bodipy-positive cells” value [1] was 20.6% and 10%.
In the case of `CCN(CC)Cc1cc(Nc2ccnc3cc(Cl)ccc23)ccc1O.Cl.Cl.O.O` [Amodiaquin dihydrochloride dihydrate], the “percent Bodipy-positive cells” value is reported as 96.3 ± 1.6%.
In the case of `COc1cc(Oc2ccnc3cc(OC)c(OC)cc23)ccc1NC(=O)NC(C)c1nccs1` (centres undefined), the “percent Bodipy-positive cells” value [5] is reported as 8.11 ± 2.1%, the “percent Bodipy-positive cells” value [6] is reported as 9.76% and 20% and the “percent Bodipy-positive cells” value [4] is reported as 7.86% and 27.9%.
With `Cn1c(Nc2ccc(C(F)(F)F)cc2)nc2cc(Oc3ccnc(-c4ncc(C(F)(F)F)[nH]4)c3)ccc21` the “percent Bodipy-positive cells” value [5] was 4.57 ± 0.6%, the “percent Bodipy-positive cells” value [6] was 5.62 ± 0.39% and the “percent Bodipy-positive cells” value [4] was 4.71 ± 0.87%. For the same compound, the “percent Bodipy-positive cells” value [2] was 6.01 ± 0.8% and the “percent Bodipy-positive cells” value [1] was 6.78% and 2.43%.
`COc1ccc(/C=C\c2cc(OC)c(OC)c(OC)c2)cc1O` [Combrestatin A4] was tested, and the “percent Bodipy-positive cells” value [7] was 44 ± 16%.
With `C(=C(/CC1)\CCN1C)(/c2c3cccc2)\c4c(cccc4)C=C3.Cl` [Cyproheptadine hydrochloride] the “percent Bodipy-positive cells” value [1] was 97.15 ± 0.7%.
`O=C(O)/C=C/c1cnc[nH]1` [4-Imidazoleacrylic acid] was tested, and the “percent Bodipy-positive cells” value [1] was 24 ± 1.2%.
In the case of `C[C@H](CCC(=O)O)[C@H]1CC[C@H]2[C@@H]3CC[C@@H]4C[C@H](O)CC[C@]4(C)[C@H]3CC[C@]12C` [Lithocholic acid], the “percent Bodipy-positive cells” value is reported as 8.89 ± 1.7%, the “percent Bodipy-positive cells” value [2] is reported as 6.71 ± 2.7% and the “percent Bodipy-positive cells” value [1] is reported as 22.5% and 20.5%.
`CC(=O)SCC(Cc1ccccc1)C(=O)NCC(=O)OCc1ccccc1` (centres undefined) [Racecadotril] was tested, and the “percent Bodipy-positive cells” value was 35.7 ± 4.3%, the “percent Bodipy-positive cells” value [2] was 8.46 ± 2% and the “percent Bodipy-positive cells” value (library stock concentration: 5.2 mM) was 7.2 ± 0.69%. The “percent Bodipy-positive cells” value [1] was 21.3 ± 6%.
`CC(=O)SCC(Cc1ccccc1)C(=O)NCC(=O)OCc1ccccc1` (centres undefined) was tested, and the “percent Bodipy-positive cells” value [1] was 10.5 ± 3.2%.
For `NCc1c[nH]c(=S)n1C1CCc2c(F)cc(F)cc2C1` [(R)-Nepicastat HCl], the “percent Bodipy-positive cells” value [2] was 25.1 ± 7.7% and the “percent Bodipy-positive cells” value [1] was 63.6 ± 0.68%.
With `CC1COc2c(N3CCN(C)CC3)c(F)cc3c(=O)c(C(=O)O)cn1c23` (centres undefined) [Ofloxacin] the “percent Bodipy-positive cells” value was 23.6 ± 2.6% and the “percent Bodipy-positive cells” value [1] was 16.4% and 25.1%.
With `CCCCC[C@@H](O)/C=C/[C@@H]1[C@H](C/C=C\CCCC(=O)O)[C@@H](O)C[C@H]1O` [8-iso-15(R)-Prostaglandin F2.alpha.] the “percent Bodipy-positive cells” value [7] was 19.1 ± 9.4%.
